Experimental data from the supplement of paper PMC12593923.

What was measured:
Assay in all cases: drug sensitivity score (DSS2, cytotoxicity, CellTox Green); higher = more cytotoxic / more sensitive; extreme values may be limits of the assay
Conditions in all cases: 72 h; doses 0.5, 1, 5 µM
[1] = system: OVCAR4
[2] = system: OVCAR3
[3] = system: Kuramochi

| SMILES | drug sensitivity score [1] [DSS] | drug sensitivity score [2] [DSS] | drug sensitivity score [3] [DSS] |
| --- | --- | --- | --- |
| CC(C)(C)NCC(O)c1ccc(O)c(CO)c1 (configuration not stated) [Salbutamol (hemisulfate)] | 0 | 0 | 0 |
| CC(=O)[C@]1(O)Cc2c(O)c3c(c(O)c2[C@@H](O[C@H]2C[C@H](N)[C@H](O)[C@H](C)O2)C1)C(=O)c1ccccc1C3=O [Idarubicin (hydrochloride)] | 1 | 0.4 | 0.4 |
| CO[C@H]1C(=O)[C@]2(C)[C@@H](OC)C[C@H]3OC[C@@]3(OC(C)=O)[C@H]2[C@H](OC(=O)c2ccccc2)[C@]2(O)C[C@H](OC(=O)[C@H](O)[C@@H](NC(=O)OC(C)(C)C)c3ccccc3)C(C)=C1C2(C)C [Cabazitaxel] | 0 | 5.6 | 5.9 |
| CCCCCCCC/C=C\CCCCCCCC(=O)[O-].[Na+] [Sodium oleate] | 0 | 0 | 0 |
| Cn1c(CCCC(=O)O)nc2cc(N(CCCl)CCCl)ccc21 [Bendamustine (hydrochloride)] | 0 | 0 | 0 |
| COC(=O)CCc1ccc(OCC(O)CNC(C)C)cc1 (configuration not stated) [Esmolol (hydrochloride)] | 0 | 0 | 0 |
| Cn1c(O)c(C2=c3ccccc3=NC2=O)c2ccccc21 [Meisoindigo] | 0 | 0 | 0 |
| Cc1ccc(NC(=O)c2ccc(CN3CCN(C)CC3)cc2)cc1Nc1nc(-c2cccnc2)cs1 [Masitinib (mesylate)] | 0 | 0 | 0 |
| COc1cc2ncnc(Nc3ccc(F)c(Cl)c3)c2cc1OCCCN1CCOCC1 [Gefitinib] | 0 | 0 | 0 |
| CN(C)c1cc(NC(=O)CNC(C)(C)C)c(O)c2c1C[C@H]1C[C@H]3[C@H](N(C)C)C(=O)C(C(N)=O)=C(O)[C@@]3(O)C(=O)C1=C2O [Tigecycline (tetramesylate)] | 0 | 0 | 0.2 |
| CC(C)C[C@H](NC(=O)CNC(=O)c1cc(Cl)ccc1Cl)B(O)O [Ixazomib] | 2.2 | 1.3 | 1.7 |
| C[C@H]1CNCCCN1S(=O)(=O)c1cccc2cncc(F)c12 [Ripasudil] | 0 | 0 | 0 |
| CN(Cc1cnc2nc(N)nc(N)c2n1)c1ccc(C(=O)N[C@@H](CCC(=O)O)C(=O)O)cc1 [Methotrexate (disodium)] | 0 | 0 | 0 |
| Nc1cccc2c1C(=O)N(C1CCC(=O)NC1=O)C2=O (configuration not stated) [Pomalidomide] | 0 | 0 | 0 |
| C[C@@H]1O[C@@H](O[C@H]2C[C@@H](O)[C@]3(CO)[C@H]4[C@H](O)C[C@]5(C)[C@@H](C6=CC(=O)OC6)CC[C@]5(O)[C@@H]4CC[C@]3(O)C2)[C@H](O)[C@H](O)[C@H]1O [Ouabain (Octahydrate)] | 6.1 | 4.5 | 4.3 |
| Nc1ccn([C@@H]2O[C@H](CO)[C@@H](O)C2(F)F)c(=O)n1 [Gemcitabine (hydrochloride)] | 0 | 0 | 0 |
| CC(=O)Nc1cccc(-n2c(=O)n(C3CC3)c(=O)c3c(Nc4ccc(I)cc4F)n(C)c(=O)c(C)c32)c1 [Trametinib (DMSO solvate)] | 0 | 0 | 0 |

| SMILES | drug sensitivity score [1] [DSS] | drug sensitivity score [2] [DSS] | drug sensitivity score [3] [DSS] |
| --- | --- | --- | --- |
| CCN(CCO)CCCC(C)Nc1ccnc2cc(Cl)ccc12 (configuration not stated) [Hydroxychloroquine sulfate] | 0 | 0 | 0 |
| Cc1ccc(-c2cn3c4c(sc3n2)CCCC4)cc1 [Pifithrin-β (hydrobromide)] | 0 | 0 | 0 |
| COCc1c(C(C)C)nc(C(C)C)c(/C=C/[C@@H](O)C[C@@H](O)CC(=O)O)c1-c1ccc(F)cc1 [Cerivastatin (sodium)] | 0 | 0 | 0 |
| CCS(=O)(=O)N1CC(CC#N)(n2cc(-c3ncnc4[nH]ccc34)cn2)C1 [Baricitinib] | 0 | 0 | 0 |
| O=C(c1cc(Cc2n[nH]c(=O)c3ccccc23)ccc1F)N1CCN(C(=O)C2CC2)CC1 [Olaparib] | 0 | 0 | 0 |
| CC[C@@]1(O)C[C@H](O[C@H]2C[C@H](N(C)C)[C@H](O[C@H]3C[C@H](O)[C@H](O[C@H]4CCC(=O)[C@H](C)O4)[C@H](C)O3)[C@H](C)O2)c2c(cc3c(c2O)C(=O)c2c(O)cccc2C3=O)[C@H]1C(=O)OC [Aclacinomycin A hydrochloride] | 0 | 0 | 0 |
| O=NN(CCCl)C(=O)NCCCl [Carmustine] | 0 | 0 | 0 |
| Cc1ncc([N+](=O)[O-])n1CCO [Metronidazole] | 0 | 0 | 0 |
| NC(=O)N1c2ccccc2CC(=O)c2ccccc21 [Oxcarbazepine] | 0 | 0 | 0 |
| COc1ccc([C@@H]2CC(=O)c3c(O)cc(O[C@@H]4O[C@H](CO[C@@H]5O[C@@H](C)[C@H](O)[C@@H](O)[C@H]5O)[C@@H](O)[C@H](O)[C@H]4O)cc3O2)cc1O [Hesperidin] | 0 | 0 | 0 |
| CC(=O)c1c(C)c2cnc(Nc3ccc(N4CCNCC4)cn3)nc2n(C2CCCC2)c1=O [Palbociclib (monohydrochloride)] | 0 | 0 | 0 |
| Cc1ccc(C(=O)Cn2c3c(sc2=N)CCCC3)cc1 [Pifithrin-α (hydrobromide)] | 0 | 0 | 0 |
| COc1ccc2c3c1O[C@H]1C[C@@H](O)C=C[C@@]31CCN(C)C2 [Galanthamine] | 0 | 0 | 0 |
| COc1ccc2cc1Oc1ccc(cc1)C[C@H]1c3c(cc4c(c3Oc3cc5c(cc3OC)CCN(C)[C@@H]5C2)OCO4)CCN1C [Cepharanthine] | 0 | 0 | 0 |
| O=C([O-])c1ccc(-n2nc(-c3ccccc3[O-])nc2-c2ccccc2[O-])cc1.[Fe+3] [Deferasirox (Fe3+ chelate)] | 0 | 0 | 0 |
| CCCS(=O)(=O)Nc1ccc(F)c(C(=O)c2c[nH]c3ncc(-c4ccc(Cl)cc4)cc23)c1F [Vemurafenib] | 0 | 0 | 0 |
| O=C(O)CC(O)(CC(=O)O)C(=O)O [Citric acid] | 0 | 0 | 0 |

An excerpt from above, showing only drug sensitivity score [3] [DSS] and drug sensitivity score [2] [DSS].
SMILES | drug sensitivity score [3] [DSS] | drug sensitivity score [2] [DSS]
Cc1ccc(NC(=O)c2ccc(CN3CCN(C)CC3)cc2)cc1Nc1nc(-c2cccnc2)cs1 [Masitinib (mesylate)] | 0 | 0
COc1cc2ncnc(Nc3ccc(F)c(Cl)c3)c2cc1OCCCN1CCOCC1 [Gefitinib] | 0 | 0

Counter-ions that a name gives are not always drawn. Several reference drugs read as weak here; read low effects with care.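 All three lines are high-grade serous ovarian cancer cells differing in chemosensitivity, with OVCAR3 described as the chemosensitive one. Toxicity was scaled between DMSO vehicle wells and fully lysed wells, the score derives from a fitted multi-dose response curve, and the authors counted a score above 5 as drug sensitivity.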
